Measurements as given in publication PMC7101364, “The biofilm-associated surface protein Esp of Enterococcus faecalis forms amyloid-like fibers” (NPJ Biofilms and Microbiomes, 2020).
These are yes or no findings as the source states them, for the method shown.

Tests used:
[1] = target: recombinant Esp_N domain (N-terminal domain of the enterococcal surface protein Esp, amino acids 50-743) (Enterococcus faecalis (strain 11279)) (UniProt Q9Z4N7); assay: condition: only buffer exchanged from pH 4.2 to pH 7; visible aggregation in tubes (reversion assay); aggregates formed 24 h at 37 °C at pH 4.2; buffer exchanged to phosphate-citrate pH 7, overnight at 37 °C with shaking; both purified
[2] = target: recombinant Esp_N domain (N-terminal domain of the enterococcal surface protein Esp, amino acids 50-743) (Enterococcus faecalis (strain 11279)) (UniProt Q9Z4N7); assay: static light scattering; 0.1 mg/ml rEsp_N, sample reverted from pH 4.2 to pH 7.0 in phosphate-citrate buffer; both purified

B1: recombinant Esp_N domain (N-terminal domain of the enterococcal surface protein Esp, amino acids 50-743) (domain or fragment)
chain: QMGEGRLANYSASGNTFQENPGYTKNYNFSDLQFNPKAITGDVLQGNTIDFEVYGKHNIAASTANWEIRLQLDERLAQYVEKIQVDPKKGVGNSRRTFVRINDSLGRPTNIWKVNYIRANDGLFAGAETTDTQTAPNGVITFEKNLDEIFKEIGADNLKSDRLMYRIYLVSHQDDDKIVPGIESTGYFLTDQDDFYNKLDVSENNSDQFKHGSVNTKYEEANIQTKDGSGSTGANGAIILDHKLTKEKNFSYSTSAKGTPWYANYKIDERLVPYVSGIQMHMVQADKVAYNVAFESGKKVADLAIERREGHENYGMGSITDNDLTKLIDFANASPRPIVVRYVLQLTKPLDEILEEMKAADKIEENAPFGEDFIFDSWLSDTNKKLIQNTYGTGYYYLQDIDGDGNPDDKEESGDTNPYIGKPELEEVYDVDTTVKGKVFIHELAGTGHKAQLVDKEGTVLAEKTIAPNEKDGAPISDTVEFEFTGVDSSKLIAKDELKIQIVSPGFDKPEEGSTVIKESPKAVDKQTVVVGFKPDAKESIRNNKNLPEDAEYSWKTEPDTSNVTDSTKGIVTVKIGNRTFDVDVEFAVKASQAMENDATYVPITTTPETTIQSGKPTFDKPDVPLANDAFSVLDVYNKDFGNASVDANTGIVTFTPAKGVGESEPITGTIPIKIVYQDGSVGTTDLAVTVSKN
notes: Enterococcal surface protein Esp of Enterococcus faecalis, amplified from strain 11279; N-terminal domain, amino acids 50-743 of the 1873-residue protein; No cleavage of the tag is mentioned; also called N-terminus of Esp; not shown: His tag (from the vector pET46-Ek/LIC)
binding [1]: no binding
binding [2]: no binding (condition: buffer changed from pH 4.2 to pH 7)
